Values from PubChem BioAssay AID1224830 (NIAID, 2016)

Purpose: 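Regulators of TLR4 signalling towards TNF-alpha in macrophage-like cells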 (primary screen)
Cell system: human THP-1 monocytic leukaemia cells, TNF dual-luciferase reporter clone, PMA-differentiated to macrophage-like cells
Knock-down reagent: siRNA pool against human genes, 50 nM
Timing: LPS for 4 h, given about 3 days after siRNA transfection
Challenge: bacterial LPS (TLR4 ligand), 10 ng/ml
Measurement: 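TNF firefly reporter luminescence divided by renilla, normalised to the plate median, then turned into a robust z-score for each replicate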
Direction: TNF reporter robust z-score: higher = stronger TNF reporter response to LPS
Active means: 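Each well counts as active if its z-score is over 2.8 or under -1.5; controls are left without a call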
The whole screen tested about 18,000 reagents; below is an unselected part. About 2,900 of them (16%) were called active. 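Calls are made per well; low scores hint the gene aids the LPS response, high scores that it dampens it.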 Repeated entries: four replicate wells of each siRNA pool. No sequences are given here.

Gene	TNF reporter robust z-score	Outcome
ETNPPL (ethanolamine-phosphate phospho-lyase)	-0.18	inactive
ETNPPL (ethanolamine-phosphate phospho-lyase)	1.63	inactive
ETNPPL (ethanolamine-phosphate phospho-lyase)	-0.13	inactive
ETNPPL (ethanolamine-phosphate phospho-lyase)	1.49	inactive
PSMD1 (proteasome 26S subunit, non-ATPase 1)	-1.42	inactive
PSMD1 (proteasome 26S subunit, non-ATPase 1)	-1.4	inactive
PSMD1 (proteasome 26S subunit, non-ATPase 1)	-1.39	inactive
PSMD1 (proteasome 26S subunit, non-ATPase 1)	-1.38	inactive
KLHL10 (kelch like family member 10)	-0.43	inactive
KLHL10 (kelch like family member 10)	-0.14	inactive
KLHL10 (kelch like family member 10)	-1.02	inactive
KLHL10 (kelch like family member 10)	-0.7	inactive
MLLT11 (MLLT11 transcription factor 7 cofactor)	0.43	inactive
MLLT11 (MLLT11 transcription factor 7 cofactor)	-1.11	inactive
MLLT11 (MLLT11 transcription factor 7 cofactor)	-0.15	inactive
MLLT11 (MLLT11 transcription factor 7 cofactor)	0.23	inactive
TCTN2 (tectonic family member 2)	-0.35	inactive
TCTN2 (tectonic family member 2)	0.72	inactive
TCTN2 (tectonic family member 2)	-0.02	inactive
TCTN2 (tectonic family member 2)	0.16	inactive
RHBDD2 (rhomboid domain containing 2)		inactive
CHRNB3 (cholinergic receptor nicotinic beta 3 subunit)	0.2	inactive
CHRNB3 (cholinergic receptor nicotinic beta 3 subunit)	-0.14	inactive
CHRNB3 (cholinergic receptor nicotinic beta 3 subunit)	0.54	inactive
CHRNB3 (cholinergic receptor nicotinic beta 3 subunit)	-1.03	inactive
MED1 (mediator complex subunit 1)	0.01	inactive
MED1 (mediator complex subunit 1)	-0.85	inactive
MED1 (mediator complex subunit 1)	-0.96	inactive
MED1 (mediator complex subunit 1)	-0.11	inactive
SEMA4B (semaphorin 4B)	-0.16	inactive
SEMA4B (semaphorin 4B)	0.91	inactive
SEMA4B (semaphorin 4B)	0.39	inactive
SEMA4B (semaphorin 4B)	-0.53	inactive
TP53BP2 (tumor protein p53 binding protein 2)	2.11	inactive
TP53BP2 (tumor protein p53 binding protein 2)	1.8	inactive
TP53BP2 (tumor protein p53 binding protein 2)	-0.18	inactive
TP53BP2 (tumor protein p53 binding protein 2)	0	inactive
C9orf72 (C9orf72-SMCR8 complex subunit)	-1.94	active
C9orf72 (C9orf72-SMCR8 complex subunit)	-1.65	active
C9orf72 (C9orf72-SMCR8 complex subunit)	-1.75	active
C9orf72 (C9orf72-SMCR8 complex subunit)	-1.4	inactive
SCAI (suppressor of cancer cell invasion)	-0.51	inactive
SCAI (suppressor of cancer cell invasion)	-0.41	inactive
SCAI (suppressor of cancer cell invasion)	-0.53	inactive
SCAI (suppressor of cancer cell invasion)	0.08	inactive

No new results follow: an excerpt of the list.
Gene	TNF reporter robust z-score	Outcome
CHRNB3 (cholinergic receptor nicotinic beta 3 subunit)	-1.03	inactive
MED1 (mediator complex subunit 1)	0.01	inactive
MED1 (mediator complex subunit 1)	-0.85	inactive
MED1 (mediator complex subunit 1)	-0.96	inactive
MED1 (mediator complex subunit 1)	-0.11	inactive
